Results are given in words; binding and its absence hold for the method and conditions named. Some results given as binding are weak or reduced against the parent protein; the word gives no strength. Sequences can lack the tags named with a protein.
Biological target: T1, Neuropilin 1 (NRP1), R&D 3870-N1-025 (UniProt O14786)
T1 sequence (biotinylated at a 1,2 molar ratio, looked up): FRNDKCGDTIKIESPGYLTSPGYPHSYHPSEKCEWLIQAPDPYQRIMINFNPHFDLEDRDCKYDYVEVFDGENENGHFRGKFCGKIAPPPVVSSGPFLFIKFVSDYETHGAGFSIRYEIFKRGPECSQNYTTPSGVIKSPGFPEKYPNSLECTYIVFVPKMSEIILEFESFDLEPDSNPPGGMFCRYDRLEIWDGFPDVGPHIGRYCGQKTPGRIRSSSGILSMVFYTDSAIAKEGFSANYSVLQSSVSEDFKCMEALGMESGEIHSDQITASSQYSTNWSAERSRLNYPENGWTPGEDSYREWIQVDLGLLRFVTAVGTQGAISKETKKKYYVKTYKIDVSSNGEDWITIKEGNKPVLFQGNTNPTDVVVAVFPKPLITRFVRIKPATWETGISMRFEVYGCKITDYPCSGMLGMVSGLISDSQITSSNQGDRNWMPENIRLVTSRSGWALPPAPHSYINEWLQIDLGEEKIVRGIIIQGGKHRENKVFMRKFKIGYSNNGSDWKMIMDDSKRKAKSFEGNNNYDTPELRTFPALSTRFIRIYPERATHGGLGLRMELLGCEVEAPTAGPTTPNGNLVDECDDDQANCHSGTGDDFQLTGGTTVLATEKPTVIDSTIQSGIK
Experiment: BLI, NRP1 on biosensor

binding: binds
B1: Fc-fusion CTR-RELN WT (184I pfcn-huIgG2-C-termH3447WT) (Fc fusion)
chain: APLERKSSVECPPCPAPPVAGPSVFLFPPKPKDTLMISRTPEVTCVVVDVSHEDPEVQFNWYVDGVEVHNAKTKPREEQFNSTFRVVSVLTVVHQDWLNGKEYKCKVSNKGLPAPIEKTISKTKGQPREPQVYTLPPSREEMTKNQVSLTCLVKGFYPSDIAVEWESNGQPENNYKTTPPMLDSDGSFFLYSKLTVDKSRWQQGNVFSCSVMHEALHNHYTQKSLSLSPGARTSTRKQNYMMNFSRQHGLRHFYNRRRR

From US20260139017A1, “COMPOSITIONS AND METHODS USING REELIN IN ALZHEIMER'S DISEASE” (The General Hospital Corporation, priority 2022, published 2026)
